Experimental data taken from PubChem BioAssay AID1508600 (Functional Genomics Laboratory (NCATS/FGL), 2020).
Out of some 53,000 sequences screened, about 3,700 (7%) were called active.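 How the source made its calls: active means gene knockdowns whose robust z-score for IL-1 alpha signal is at least 2 or at most -2, so actives lie on both sides; inactive means the rest.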 This is one part of the list.

experiment: Components of the Cytosolic LPS Sensing Pathway: Gene Identification via Genome-wide siRNA Screen; conditions: RAW264.7 macrophages, IL-1a HTRF, actives lie on both sides, screened at 100 nM (by protocol), cells primed 5 h with Pam3CSK4 first;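 further: robust z of the log signal after scaling to non-targeting control siRNA wells of the plate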
Outline: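 Cells (RAW264.7, 1×10^4 per well) were transfected with siRNA at 100 nM and cultured 48h at 37 degrees C. Pam3CSK4 was added for 5 hours; LipidA transfection followed for 24 hour. IL-1a was then measured by HTRF.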

| Sequence | z-score |
| --- | --- |
| GGUGGAAUUGGAAUCACCUTT against Get1 | inactive: -0.94 |
| GGAAGUGGAAGUUCUGAAGTT against Tsc22d1 | inactive: -0.886 |
| UUGUGACCAAUUUCUGAAUTT against Pgbd1 | inactive: -0.594 |
| GCCAGUCUGGAGUUGCUUUTT against Timm23 | inactive: 1.04 |
| GCUUUGUAACCGUCCUCCATT against Ftl1 | inactive: 0.342 |
| GGCCAGUUCCUUCUAGACUTT against Abhd1 | inactive: -0.179 |
| GGGCUUCCCUUACAAAAGGTT against Padi3 | inactive: 0.0845 |
| GGGAAAUCACCAUAUUUCCTT against Atp10b | inactive: 0.0262 |
| CCGUGUUGUCUGAAAAAUATT against Fam98c | inactive: -0.331 |
| GGAACUUCUGAACAUCAGCTT against Prss28 | inactive: -0.493 |
| GGUCUAUGAGAUGUUUUCUTT against Cyp2a4 | active: 2.78 |
| GGUUCUCAUGUUGUUGGCUTT against 1600014C10Rik | inactive: -1.99 |
| GGGUAGCUACGAAGAGGAATT against Ros1 | inactive: 1.72 |
| GUUAAAGACUAACCUGUUATT against Smco1 | inactive: -1.22 |
| GGACUUUAGAGUUCGCCAUTT against Plekhg6 | inactive: -0.341 |
| GCAGAGAAGGCAAUAAACUTT against Glrx3 | inactive: 0.129 |
| GGAGUGAAGACUUUGAGAATT against Kcnn2 | inactive: -0.631 |
| GGUGAAGUCCAGUAAUAAGTT against Nfrkb | inactive: -1.98 |
| GGGACUCCUCAAUGCUUAUTT against Nxf3 | inactive: -1.33 |
| CGAGAGUAGCUUGUUGCUGTT against Rhobtb3 | inactive: 0.359 |
| GGUUCAGAGAACCUCUCACTT against Slc26a10 | inactive: 0.479 |
| GCACAACAUUAAAUGCAGATT against Hspa4 | inactive: 0.237 |

| Sequence | z-score |
| --- | --- |
| GGACAGAUACUUUUGAUGATT against Zfp386 | inactive: 1.12 |
| GCAAAUUUGCCAAGUCAAATT against Rpap2 | inactive: 0.0345 |
| GGAAUUUAUGGAUAGAGGATT against Zfp768 | inactive: -0.178 |
| GGCUUUCACCUUAAUUGAUTT against Fntb | inactive: -0.296 |
| GGAUGCAUGUCAUGUUUACTT against Xpnpep3 | inactive: 1.3 |
| GGAUGCAUCUAGCUUCACATT against BC016548 | inactive: 0.406 |
| GGACUUUUAUUAUUUCCCGTT against Mpped1 | inactive: 0.245 |
| GGGAAAUCAAGGAACUUAATT against Lrrfip1 | inactive: 0.357 |
| GGCAAUGAGAUCAGUCCACTT against Gzmc | inactive: 0.431 |
| GGUCUUUCAAUAAAGAGAATT against Supt5 | inactive: -1.75 |
| GCAUAGCCACAAGGUUAAUTT against Nat8f4 | inactive: 0.35 |
| CGGGUCGUCUCCUUACACATT against Prdm8 | inactive: -0.381 |
| GGAAUUGAAUGGAAAGUGUTT against Ggta1 | inactive: 0.178 |
| GGGUGACUACAAAUACCUGTT against Susd6 | inactive: -1.18 |
| GGAUCAGAAGAAGUUUAUUTT against Parn | inactive: 1.52 |
| GCCAUUUGUUUAUGGAGGCTT against Spint2 | inactive: -1.46 |
| GGAACUUGACAAAGUCUACTT against Panx1 | inactive: 1.2 |
| GGUUUCAGACUCCAUGAGATT against Gyg | inactive: 0.402 |
| GCUUUACUCCAGAUGGAUCTT against Chaf1b | active: 3.23 |
| GGUCAUUUGAUCUUCUGGUTT against Cacybp | inactive: -0.256 |
| GGGCGACCUUUGAUUGACATT against Etv5 | inactive: -0.0312 |
| GCUGAUCGUGCAGAUUUUATT against Chn2 | inactive: 0.236 |

| Sequence | z-score |
| --- | --- |
| GGAAAUAAACAAGUCCCACTT against Urm1 | inactive: 0.465 |
| GCUAAUACGAUCACUAGCUTT against Gdf6 | inactive: 0.511 |
| GGUUCUACGAGUAAAAAGCTT against Xrcc6 | inactive: -0.774 |
| CGUGAUCGAUGGGAAGAAUTT against Tppp | inactive: 1.52 |
| GGGUGUUCCUUAUACAGUUTT against Zfp524 | inactive: 0.447 |
| GCAUGGUUUACAAGGAAUGTT against Atxn1 | inactive: 1.2 |
| GCAAUGGUUGAAGAAAUUUTT against Tnip3 | inactive: 0.69 |
| GCUGAAUUCUCCAACCAACTT against Rgcc | inactive: -0.0341 |
| GCAGGGACUAACUUUCACCTT against Wrap73 | inactive: -0.459 |
| GGAAUUUUCUCAUGAUCUUTT against Krtap3-3 | inactive: 0.813 |
| GCCCUAGGUGUAAUGAUAGTT against Amd1 | inactive: 0.574 |
| GGCUCAGUGUGCCAAACUGTT against Krt84 | inactive: -1.19 |
| GGCUUCCAAGCCUAAAGCUTT against H1f3 | inactive: -0.266 |
| GUUCCUGCUGAUCAAGGACTT against Nsmce3 | inactive: 0.2 |
| CCGAUGUGCUCACUAUCACTT against Mrps35 | inactive: -0.0351 |
| CCUAUCCUACUGUCAAGAUTT against Nfkb2 | inactive: 0.689 |
| GCCGUUUACCUUAGUCUGUTT against Cyb5rl | inactive: 0.00283 |
| CGCUAAGCUUAUUGAGUCUTT against Sh3bp5l | inactive: -0.673 |
| GGUUGAGAAACCAAUUUCATT against Retnlb | inactive: 0.46 |
| GGCAUUCUCUAUGAAGCUGTT against Vrk3 | inactive: -1.98 |
| CGACUUGUCAUGAACCAAATT against Atrx | inactive: -0.597 |
| GGCAAAUGUAGACAUGUAUTT against Defb44-ps | inactive: -0.0483 |

5 records picked at random from the list so far, as already listed:

| Sequence | z-score |
| --- | --- |
| GCCCUAGGUGUAAUGAUAGTT against Amd1 | inactive: 0.574 |
| GCCGUUUACCUUAGUCUGUTT against Cyb5rl | inactive: 0.00283 |
| GUUCCUGCUGAUCAAGGACTT against Nsmce3 | inactive: 0.2 |
| GCAAUGGUUGAAGAAAUUUTT against Tnip3 | inactive: 0.69 |
| CGUGAUCGAUGGGAAGAAUTT against Tppp | inactive: 1.52 |

Later entries:

| Sequence | z-score |
| --- | --- |
| GGUAAAGACGUAAACUUACTT against Rhpn2 | inactive: 0.729 |
| GGUUUCUGCCCAGAGUCUATT against 2010106E10Rik | active: -2.78 |
| GGAUGAGAACAACUCUGCUTT against Lrtm2 | inactive: 0.439 |
| GGAUGUUGAUCUGACUCACTT against Ppp1r7 | inactive: -0.0181 |
| AUAUAUGCUUACCUUGCUATT against Ubl5 | inactive: 0.738 |
| GCUGUUAACUUGGAAGACUTT against Fut11 | inactive: -0.0284 |
| CGAGAUCAGGCUACGUCGATT against Fam171a2 | inactive: -1.51 |
| CCUGAUCACCAGAUGCUGATT against Sprr1a | inactive: 1.73 |
| GGAGAAGAAAGUGUUGAAATT against Klhdc4 | inactive: 1.79 |
| GGCAGCCAAGAAAAUGUUATT against Gstt2 | inactive: -0.836 |
| GCCAUUAAUAAUCAGUACUTT against Sh2b1 | inactive: 0.357 |
| GCUCUAUGUCAGAAACCAGTT against C4bp | inactive: -0.338 |
| CCUUUGGUGAAGCCUGGAUTT against Kiss1 | inactive: -0.0609 |
| GCGGAAAAGGGAGUUGCCUTT against Hand1 | inactive: -1.79 |
| GCAGUCUUAAUUCAUGGUGTT against Slco6c1 | inactive: 0.183 |
| GCUGAAGCAUGCCCGUAAUTT against Racgap1 | inactive: -0.191 |
| GGACUCUCAGAAGAAUGAUTT against Hmmr | active: 2.98 |
| GGAGCUGGAUUCAUUGACGTT against Chil4 | inactive: 0.612 |
| GUGACUCCCAAACUCCUGATT against Olfr1180 | inactive: -1.81 |
| CCUAAAGUCUGAAUGUUCCTT against Il3 | inactive: -0.421 |
| GGGUGAUGAUCUUCAGCAATT against Txnrd3 | inactive: -0.616 |
| GGUUUUUGAACUGGUAAGATT against Olfr725 | inactive: -1.34 |

| Sequence | z-score |
| --- | --- |
| CGAGAGAUGUAACAAAAAGTT against Sele | inactive: 0.446 |
| GGUUCAAGGCAACACUGUGTT against Ankrd13d | inactive: -1.54 |
| GCUCGAGUACCUGUACCUATT against Elfn1 | active: 3.11 |
| GGCCCACAAGUACCGUUACTT against Gcat | inactive: -0.317 |
| CCCAAUCACUUAUUGAAACTT against Vcan | inactive: 1.07 |
| GGCUGAAGUUAUCCUGCCATT against Antxrl | inactive: 1.97 |
| CCAAAGUGGACACAAUUGCTT against Ephb6 | inactive: -1.43 |
| GCUGUCUCAAUCACCCUAATT against Olfr1427 | inactive: -1.23 |
| GGCCAAGAACUCCAAGCAUTT against Ercc6 | inactive: -1.15 |
| GGGUAAAGACCUCAAUGAATT against Slitrk1 | inactive: -1.09 |
| GGACUUCCUAAGCAACUCATT against Mycs | inactive: 0.486 |
| CCUUCCACAAAUACUCAGGTT against S100a4 | inactive: 0.562 |
| CCAGUUUAUCACAUAACCUTT against Wasl | inactive: -0.928 |
| CCAUCUUGAAUUACCUCCGTT against Tnfaip1 | inactive: -1.04 |
| GGAUGAAGAUGGAGAUCUUTT against Tfg | active: 2.14 |
| GCUCUACUUGUAUAUGCCCTT against Sdr16c5 | inactive: 0.61 |
| GGACUCCCUUACUUUAUUATT against Mertk | inactive: -0.367 |
| GGGAAAACAGAAGAGUUUGTT against Ctr9 | inactive: -0.454 |
| GGGCGAACAGGACAAUUAUTT against Med22 | inactive: -0.421 |
